From PMC9107480
No constants are given. Whether binding was seen depends on the method and setting. For some of these results: In cells and extracts the contact can be indirect. Some results given as binding are weak or reduced against the parent protein; the word gives no strength.

Amino acid sequences for entries named in this document (tags omitted). A change or cut given only in a name is not applied to a line headed by its entry.
UniProt P49841: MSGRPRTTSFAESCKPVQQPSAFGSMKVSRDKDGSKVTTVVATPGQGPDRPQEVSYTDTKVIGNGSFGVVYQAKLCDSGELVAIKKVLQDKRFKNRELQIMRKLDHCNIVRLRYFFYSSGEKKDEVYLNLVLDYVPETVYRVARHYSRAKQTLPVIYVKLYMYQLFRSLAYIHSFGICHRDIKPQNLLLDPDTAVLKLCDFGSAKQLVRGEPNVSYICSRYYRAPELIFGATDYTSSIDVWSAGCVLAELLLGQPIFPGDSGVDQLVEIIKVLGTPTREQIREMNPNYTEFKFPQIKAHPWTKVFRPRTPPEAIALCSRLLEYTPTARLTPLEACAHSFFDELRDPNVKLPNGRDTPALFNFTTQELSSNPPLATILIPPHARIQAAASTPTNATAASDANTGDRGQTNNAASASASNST
UniProt O60573: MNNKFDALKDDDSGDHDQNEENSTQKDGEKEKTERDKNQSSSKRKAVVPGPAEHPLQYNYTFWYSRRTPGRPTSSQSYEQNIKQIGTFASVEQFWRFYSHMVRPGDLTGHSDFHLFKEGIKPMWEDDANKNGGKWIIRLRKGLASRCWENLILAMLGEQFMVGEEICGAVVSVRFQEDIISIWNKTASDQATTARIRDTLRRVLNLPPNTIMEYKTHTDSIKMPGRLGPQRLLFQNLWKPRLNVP

How the values were obtained:
[1] = biological target: Glycogen synthase kinase-3β (UniProt P49841); assay: pull-down; GST pull-down of eIF4E2 and GSK3β with nanobody Nb-28A1 added
[2] = biological target: T1, RNA-binding protein RBM38 (UniProt Q9H0Z9); assay: pull-down; GST pull-down; the paper calls the interactions direct; which partner carried GST not shown
T1 sequence: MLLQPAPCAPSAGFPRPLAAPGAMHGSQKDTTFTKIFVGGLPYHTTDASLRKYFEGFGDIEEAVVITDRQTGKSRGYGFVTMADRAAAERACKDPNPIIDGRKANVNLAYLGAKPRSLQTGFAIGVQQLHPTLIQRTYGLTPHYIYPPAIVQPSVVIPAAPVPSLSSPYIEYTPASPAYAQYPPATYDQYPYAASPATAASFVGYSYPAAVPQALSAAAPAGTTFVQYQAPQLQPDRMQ

[3] = biological target: Glycogen synthase kinase-3β (UniProt P49841); assay: as above
[4] = biological target: Glycogen synthase kinase-3β (UniProt P49841); assay: pull-down; GST pull-down of eIF4E2 and GSK3β with peptide e2-I added
[5] = biological target: Glycogen synthase kinase-3β (UniProt P49841); assay: pull-down; GST pull-down of eIF4E2 and GSK3β with peptide G3-I added
eIF4E2 (human) = eIF4E2 (human) (UniProt O60573); assay: as above
GSK3β-HOTag6 [6] = biological target: GSK3β-HOTag6 (UniProt P49841); assay: SPPIER (phase separation-based protein interaction reporter); cells transiently expressing EGFP-eIF4E2-HOTag3-T2A-GSK3β-HOTag6; EGFP droplets; normal conditions, or 2 mM L-Arginine for 1 h (interaction inhibited)
GSK3β-HOTag6 [7] = biological target: GSK3β-HOTag6 (UniProt P49841); assay: SPPIER (phase separation-based protein interaction reporter); cells expressing the SPPIER reporter, 2-h hypoxia exposure
[8] = biological target: GSK3β (endogenous) (human (endogenous; cell line of the IP not shown, all cell lines of the paper are human)) (UniProt P49841); assay: co-IP; endogenous proteins from cell extracts; for GSK3β: anti-GSK3β antibody or IgG, cells in normal or hypoxia (1% O2) condition for 24 h (less eIF4E2 under hypoxia)
[9] = biological target: T2, RBM38 (endogenous) (human (endogenous; cell line of the IP not shown, all cell lines of the paper are human)) (UniProt Q9H0Z9); assay: as above
T2 sequence: T1 sequence

Substance: eIF4E2 (from UniProt O60573 1-245)
- binding [1]: binds
- binding [2]: binds
- binding [3]: binds
- binding [4]: binds
- binding [5]: binds

Substance: Peptide G3-I (from UniProt P49841 314-329)
- binding (eIF4E2 (human)): binds

Substance: EGFP-eIF4E2-HOTag3 (from UniProt O60573 1-245)
- binding (GSK3β-HOTag6 [6]): binds
- binding (GSK3β-HOTag6 [7]): no binding (condition: 2-h hypoxia exposure)

Substance: eIF4E2 (endogenous) (from UniProt O60573 1-245)
- binding [8]: binds
- binding [9]: binds
